Results: patent US20210115040A1, “OGA INHIBITOR COMPOUNDS” (Janssen Pharmaceutica NV, priority 2018, published 2021)

The chains behind the UniProt entries cited, without tags or fusion partners.
UniProt O60502, whole entry: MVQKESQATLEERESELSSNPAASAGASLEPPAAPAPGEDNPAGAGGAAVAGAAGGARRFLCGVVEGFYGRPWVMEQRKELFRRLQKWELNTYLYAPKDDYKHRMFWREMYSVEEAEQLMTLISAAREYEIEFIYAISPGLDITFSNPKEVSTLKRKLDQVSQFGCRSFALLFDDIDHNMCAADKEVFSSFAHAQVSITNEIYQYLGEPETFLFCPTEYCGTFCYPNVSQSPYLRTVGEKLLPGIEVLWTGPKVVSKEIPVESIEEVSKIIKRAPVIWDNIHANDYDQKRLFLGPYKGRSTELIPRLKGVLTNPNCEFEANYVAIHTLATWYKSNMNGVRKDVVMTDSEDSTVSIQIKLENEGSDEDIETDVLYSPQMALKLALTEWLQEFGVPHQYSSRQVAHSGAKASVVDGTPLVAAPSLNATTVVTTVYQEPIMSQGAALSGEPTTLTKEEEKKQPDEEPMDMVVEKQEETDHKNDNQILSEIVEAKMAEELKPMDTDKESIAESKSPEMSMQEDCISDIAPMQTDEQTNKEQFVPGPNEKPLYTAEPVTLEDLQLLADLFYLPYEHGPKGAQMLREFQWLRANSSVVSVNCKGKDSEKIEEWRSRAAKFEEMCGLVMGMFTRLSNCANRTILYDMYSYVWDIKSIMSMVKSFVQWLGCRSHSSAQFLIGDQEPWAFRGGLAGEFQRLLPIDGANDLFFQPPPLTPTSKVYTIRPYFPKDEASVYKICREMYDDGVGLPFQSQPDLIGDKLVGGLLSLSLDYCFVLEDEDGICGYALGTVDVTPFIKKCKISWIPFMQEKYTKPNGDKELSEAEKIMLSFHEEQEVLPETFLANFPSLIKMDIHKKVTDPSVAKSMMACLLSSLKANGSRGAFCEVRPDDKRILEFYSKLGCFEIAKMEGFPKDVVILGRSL

What was measured:
[1] = molecular target: recombinant human Meningioma Expressed Antigen 5 (MGEA5), also referred to as O-GlcNAcase (OGA) (Homo sapiens, UniProt O60502); assay: OGA biochemical assay (inhibition of FM-GlcNAc hydrolysis, fluorescence); details: FM-GlcNAc substrate; for Enzymatic hOGA; pIC50: 6 h at room temperature; for Enzymatic Emax (%): maximal effect
Source text: The assay is based on the inhibition of the hydrolysis of fluorescein mono-β-D-N-Acetyl-Glucosamine (FM-GlcNAc) (Mariappa et al. 2015, Biochem J 470:255) by the recombinant human Meningioma Expressed Antigen 5 (MGEA5), also referred to as O-GlcNAcase (OGA). The hydrolysis FM-GlcNAc (Marker Gene technologies, cat #M1485) results in the formation of β-D-N-glucosamineacetate and fluorescein. The fluorescence of the latter can be measured at excitation wavelength 485 nm and emission wavelength 538 nm. An increase in enzyme activity results in an increase in fluorescence signal. Full length OGA enzyme was purchased at OriGene (cat #TP322411). The enzyme was stored in 25 mM Tris.HCl, pH 7.3, 100 mM glycine, 10% glycerol at −20° C. Thiamet G and GlcNAcStatin were tested as reference compounds (Yuzwa et al. 2008 Nature Chemical Biology 4:483; Yuzwa et al. 2012 Nature Chemical Biology 8:393). The assay was performed in 200 mM Citrate/phosphate buffer supplemented with 0.005% Tween-20. 35.6 g Na2HPO4 2H2O (Sigma, #C0759) were dissolved in 1 L water to obtain a 200 mM solution. 19.2 g citric acid (Merck, #1.06580) was dissolved in 1 L water to obtain a 100 mM solution. pH of the sodiumphosphate solution was adjusted with the citric acid solution to 7.2. The buffer to stop the reaction consists of a 500 mM Carbonate buffer, pH 11.0. 734 mg FM-GlcNAc were dissolved in 5.48 mL DMSO to obtain a 250 mM solution and was stored at −20° C. OGA was used at a 2 nM concentration and FM-GlcNAc at a 100 uM final concentration. Dilutions were prepared in assay buffer.
50 nl of a compound dissolved in DMSO was dispensed on Black Proxiplate™ 384 Plus Assay plates (Perkin Elmer, #6008269) and 3 μl fl-OGA enzyme mix added subsequently. Plates were pre-incubated for 60 min at room temperature and then 2 μl FM-GlcNAc substrate mix added. […] Plates were briefly centrifuged for 1 min at 1000 rpm and incubate at room temperature for 6 h. To stop the reaction 5 μl STOP buffer were added and plates centrifuge again 1 min at 1000 rpm. Fluorescence was quantified in the Thermo Scientific Fluoroskan Ascent or the PerkinElmer EnVision with excitation wavelength 485 nm and emission wavelength 538 nm.
For analysis a best-fit curve is fitted by a minimum sum of squares method. From this an IC50 value and Hill coefficient was obtained. High control (no inhibitor) and low control (saturating concentrations of standard inhibitor) were used to define the minimum and maximum values.

OGA = OGA (Homo sapiens, UniProt O60502); assay: OGA cellular assay (ICC detection of O-GlcNAcylated proteins in HEK293 cells inducible for P301L mutant human Tau); details: for Cellular hOGA; pEC50: 6 hours incubation; for Cellular Emax (%): maximum = Thiamet G 200 uM
Method: HEK293 cells inducible for P301L mutant human Tau (isoform 2N4R) were established at Janssen. Thiamet-G was used for both plate validation (high control) and as reference compound (reference EC50 assay validation). OGA inhibition is evaluated through the immunocytochemical (ICC) detection of O-GlcNAcylated proteins by the use of a monoclonal antibody (CTD110.6; Cell Signaling, #9875) detecting 0-GlcNAcylated residues as previously described (Dorfmueller et al. 2010 Chemistry & biology, 17:1250). Inhibition of OGA will result in an increase of O-GlcNAcylated protein levels resulting in an increased signal in the experiment. Cell nuclei are stained with Hoechst to give a cell culture quality control and a rough estimate of immediate compounds toxicity, if any. ICC pictures are imaged with a Perkin Elmer Opera Phenix plate microscope and quantified with the provided software Perkin Elmer Harmony 4.1.
Cells were propagated in DMEM high Glucose (Sigma, #D5796) following standard procedures. 2 days before the cell assay cells are split, counted and seeded in Poly-D-Lysine (PDL) coated 96-wells (Greiner, #655946) plate at a cell density of 12,000 cells per cm^2 (4,000 cells per well) in 100 μl of Assay Medium (Low Glucose medium is used to reduce basal levels of GlcNAcylation) (Park et al. 2014 The Journal of biological chemistry 289:13519). At the day of compound test medium from assay plates was removed and replenished with 90 μl of fresh Assay Medium. 10 μl of compounds at a 10fold final concentration were added to the wells. Plates were centrifuged shortly before incubation in the cell incubator for 6 hours. DMSO concentration was set to 0.2%. Medium is discarded by applying vacuum. For staining of cells medium was removed and cells washed once with 100 μl D-PBS (Sigma, #D8537). From next step onwards unless other stated assay volume was always 50 μl and incubation was performed without agitation and at room temperature. Cells were fixed in 50 μl of a 4% paraformaldehyde (PFA, Alpha aesar, #043368) PBS solution for 15 minutes at room temperature. […] Before analysis samples were washed 2 times manually for 5 minutes in ICC base buffer.
Imaging is performed using Perkin Elmer Phenix Opera using a water 20× objective and recording 9 fields per well. Intensity readout at 488 nm is used as a measure of O-GlcNAcylation level of total proteins in wells. To assess potential toxicity of compounds nuclei were counted using the Hoechst staining. IC50-values are calculated using parametric non-linear regression model fitting. As a maximum inhibition Thiamet G at a 200 uM concentration is present on each plate. In addition, a concentration response of Thiamet G is calculated on each plate.

Enzymatic hOGA; pIC50 [1]	Enzymatic Emax (%) [1]	Cellular hOGA; pEC50 (OGA)	Cellular Emax (%) (OGA)	Enzymatic hOGA; pIC50 ([1]; tested form: 2HCl)	Enzymatic Emax (%) ([1]; tested form: 2HCl)	Cellular hOGA; pEC50 (OGA; tested form: 2HCl)	Cellular Emax (%) (OGA; tested form: 2HCl)	SMILES
6.0	92%	–	–	–	–	–	–	Cc1cc(C[C@H]2CCCN(C(C)c3ccc4nn(C)cc4c3)C2)cc(C)n1 (stereo partly drawn)
6.6	99%	–	–	–	–	–	–	Cc1cc(C[C@H]2CCCN(C(C)c3cc4nn(C)cc4cn3)C2)cc(C)n1 (stereo partly drawn)
6.0	93%	<6	2%	–	–	–	–	COc1cc(OC[C@@H]2CCN(C(C)c3ccc4sc(C)nc4n3)C2)cc(C)n1 (stereo partly drawn)
–	–	–	–	7.6	103%	<6	45%	Cc1cc(C[C@H]2CCCN(C(C)c3cnc4cn(C)nc4c3)C2)cc(C)n1 (stereo partly drawn)

Structures were worked out from names or drawings and are uncertain.
